Measurements from paper PMC4673834.
Where two headings read alike, the source gives them in different places. No constants are given. Whether binding was seen depends on the method and setting. Binding seen in cells or lysates may run through a third protein. A yes stands for co-enrichment or nearness to the bait. Other partners may have been found. For some assays here: No binding means not detected with the bait. For some assays here: Sequences can lack the tags named with a protein.

By UniProt entry, the sequences of proteins in these tests, tags left out.
UniProt E9Q1P8: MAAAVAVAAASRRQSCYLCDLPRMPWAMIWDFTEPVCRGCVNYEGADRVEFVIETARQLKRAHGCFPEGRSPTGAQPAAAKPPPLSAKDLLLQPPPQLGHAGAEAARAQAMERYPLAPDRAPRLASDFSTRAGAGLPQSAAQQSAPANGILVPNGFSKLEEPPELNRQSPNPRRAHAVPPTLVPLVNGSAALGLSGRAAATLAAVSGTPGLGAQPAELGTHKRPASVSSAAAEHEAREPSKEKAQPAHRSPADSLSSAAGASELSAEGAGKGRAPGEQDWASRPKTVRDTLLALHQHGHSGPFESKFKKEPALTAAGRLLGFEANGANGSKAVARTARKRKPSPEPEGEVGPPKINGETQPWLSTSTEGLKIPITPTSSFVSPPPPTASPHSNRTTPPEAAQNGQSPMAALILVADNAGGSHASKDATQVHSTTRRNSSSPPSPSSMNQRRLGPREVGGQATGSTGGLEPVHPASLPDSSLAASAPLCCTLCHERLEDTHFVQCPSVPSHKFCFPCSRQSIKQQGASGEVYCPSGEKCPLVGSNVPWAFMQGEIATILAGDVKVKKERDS
UniProt Q8K3X4: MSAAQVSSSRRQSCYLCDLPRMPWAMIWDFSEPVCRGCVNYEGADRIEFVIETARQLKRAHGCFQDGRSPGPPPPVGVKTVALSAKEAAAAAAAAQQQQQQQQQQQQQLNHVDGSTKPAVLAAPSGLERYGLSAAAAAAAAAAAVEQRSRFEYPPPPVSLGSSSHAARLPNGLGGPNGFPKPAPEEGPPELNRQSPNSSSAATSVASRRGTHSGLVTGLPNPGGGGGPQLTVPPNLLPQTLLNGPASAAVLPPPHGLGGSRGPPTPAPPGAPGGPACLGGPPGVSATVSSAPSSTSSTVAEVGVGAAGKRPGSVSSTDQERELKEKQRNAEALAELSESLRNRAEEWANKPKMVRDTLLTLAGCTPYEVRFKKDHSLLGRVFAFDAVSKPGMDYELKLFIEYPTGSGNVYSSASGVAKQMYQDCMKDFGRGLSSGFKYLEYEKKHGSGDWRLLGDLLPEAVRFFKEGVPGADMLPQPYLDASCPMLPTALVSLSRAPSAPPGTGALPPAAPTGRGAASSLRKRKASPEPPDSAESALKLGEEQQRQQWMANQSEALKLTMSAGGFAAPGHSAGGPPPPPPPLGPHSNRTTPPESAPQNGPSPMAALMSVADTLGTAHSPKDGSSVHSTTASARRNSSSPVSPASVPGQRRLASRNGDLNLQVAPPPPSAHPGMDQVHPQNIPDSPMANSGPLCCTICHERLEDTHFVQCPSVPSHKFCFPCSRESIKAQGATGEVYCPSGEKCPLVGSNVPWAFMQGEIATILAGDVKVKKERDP
UniProt Q60974: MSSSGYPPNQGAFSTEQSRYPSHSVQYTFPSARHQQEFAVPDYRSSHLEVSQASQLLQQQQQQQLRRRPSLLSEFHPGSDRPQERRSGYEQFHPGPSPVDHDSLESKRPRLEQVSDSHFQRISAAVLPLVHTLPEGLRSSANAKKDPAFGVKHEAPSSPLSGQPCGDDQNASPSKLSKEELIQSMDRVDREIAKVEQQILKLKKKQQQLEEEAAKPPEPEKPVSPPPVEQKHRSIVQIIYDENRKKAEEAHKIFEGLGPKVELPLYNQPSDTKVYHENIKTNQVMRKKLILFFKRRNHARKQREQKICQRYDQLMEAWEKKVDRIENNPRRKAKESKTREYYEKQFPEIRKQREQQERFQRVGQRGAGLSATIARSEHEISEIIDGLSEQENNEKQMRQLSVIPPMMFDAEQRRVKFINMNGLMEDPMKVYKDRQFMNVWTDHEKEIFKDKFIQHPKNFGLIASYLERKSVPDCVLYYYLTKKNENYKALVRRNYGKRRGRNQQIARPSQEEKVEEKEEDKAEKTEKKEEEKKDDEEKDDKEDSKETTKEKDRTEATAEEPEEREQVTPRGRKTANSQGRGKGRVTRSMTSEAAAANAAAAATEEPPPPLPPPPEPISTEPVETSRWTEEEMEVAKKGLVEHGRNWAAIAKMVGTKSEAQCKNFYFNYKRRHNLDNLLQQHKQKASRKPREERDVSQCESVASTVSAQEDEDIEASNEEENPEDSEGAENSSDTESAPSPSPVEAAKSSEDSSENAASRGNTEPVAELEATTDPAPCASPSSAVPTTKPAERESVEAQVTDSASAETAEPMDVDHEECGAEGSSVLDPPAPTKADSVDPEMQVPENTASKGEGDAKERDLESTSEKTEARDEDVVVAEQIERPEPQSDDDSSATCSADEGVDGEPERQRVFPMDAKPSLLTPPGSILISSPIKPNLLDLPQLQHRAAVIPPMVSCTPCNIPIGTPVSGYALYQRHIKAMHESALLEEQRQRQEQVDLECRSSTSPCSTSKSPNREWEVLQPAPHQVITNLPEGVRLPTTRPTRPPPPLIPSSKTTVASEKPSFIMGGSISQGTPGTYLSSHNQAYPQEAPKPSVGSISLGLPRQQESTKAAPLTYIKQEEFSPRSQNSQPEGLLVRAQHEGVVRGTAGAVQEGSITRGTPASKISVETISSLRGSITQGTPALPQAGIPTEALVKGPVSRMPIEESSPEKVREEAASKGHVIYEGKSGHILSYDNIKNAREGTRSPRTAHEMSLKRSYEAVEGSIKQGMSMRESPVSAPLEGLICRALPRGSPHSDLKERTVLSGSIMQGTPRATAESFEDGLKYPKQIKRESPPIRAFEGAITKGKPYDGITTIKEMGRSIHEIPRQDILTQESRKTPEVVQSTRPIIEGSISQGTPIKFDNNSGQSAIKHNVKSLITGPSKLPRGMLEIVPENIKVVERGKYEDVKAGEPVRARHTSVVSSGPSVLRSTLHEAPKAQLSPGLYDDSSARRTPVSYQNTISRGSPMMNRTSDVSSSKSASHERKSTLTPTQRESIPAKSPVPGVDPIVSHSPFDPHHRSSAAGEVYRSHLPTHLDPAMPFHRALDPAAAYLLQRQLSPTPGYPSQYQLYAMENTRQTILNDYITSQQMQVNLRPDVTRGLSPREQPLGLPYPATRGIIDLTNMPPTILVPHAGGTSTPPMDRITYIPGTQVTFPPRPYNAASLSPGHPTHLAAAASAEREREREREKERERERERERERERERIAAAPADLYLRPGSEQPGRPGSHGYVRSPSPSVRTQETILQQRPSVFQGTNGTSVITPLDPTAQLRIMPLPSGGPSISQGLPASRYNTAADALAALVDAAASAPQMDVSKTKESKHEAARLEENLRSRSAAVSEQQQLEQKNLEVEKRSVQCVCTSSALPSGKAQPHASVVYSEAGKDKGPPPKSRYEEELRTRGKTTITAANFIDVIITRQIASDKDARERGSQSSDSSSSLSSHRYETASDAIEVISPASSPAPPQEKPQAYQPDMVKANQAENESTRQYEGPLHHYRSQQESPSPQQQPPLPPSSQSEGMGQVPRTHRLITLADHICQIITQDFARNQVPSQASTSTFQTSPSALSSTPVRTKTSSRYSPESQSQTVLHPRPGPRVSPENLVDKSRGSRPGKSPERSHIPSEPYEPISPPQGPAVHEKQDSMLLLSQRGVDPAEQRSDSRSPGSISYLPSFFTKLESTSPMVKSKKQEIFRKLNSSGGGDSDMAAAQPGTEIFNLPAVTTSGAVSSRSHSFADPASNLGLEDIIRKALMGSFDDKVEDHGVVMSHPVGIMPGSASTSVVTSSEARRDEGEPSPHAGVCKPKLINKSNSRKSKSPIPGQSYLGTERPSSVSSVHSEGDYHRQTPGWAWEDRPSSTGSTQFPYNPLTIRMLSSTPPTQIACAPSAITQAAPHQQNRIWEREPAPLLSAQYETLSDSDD
UniProt Q8R3Y8: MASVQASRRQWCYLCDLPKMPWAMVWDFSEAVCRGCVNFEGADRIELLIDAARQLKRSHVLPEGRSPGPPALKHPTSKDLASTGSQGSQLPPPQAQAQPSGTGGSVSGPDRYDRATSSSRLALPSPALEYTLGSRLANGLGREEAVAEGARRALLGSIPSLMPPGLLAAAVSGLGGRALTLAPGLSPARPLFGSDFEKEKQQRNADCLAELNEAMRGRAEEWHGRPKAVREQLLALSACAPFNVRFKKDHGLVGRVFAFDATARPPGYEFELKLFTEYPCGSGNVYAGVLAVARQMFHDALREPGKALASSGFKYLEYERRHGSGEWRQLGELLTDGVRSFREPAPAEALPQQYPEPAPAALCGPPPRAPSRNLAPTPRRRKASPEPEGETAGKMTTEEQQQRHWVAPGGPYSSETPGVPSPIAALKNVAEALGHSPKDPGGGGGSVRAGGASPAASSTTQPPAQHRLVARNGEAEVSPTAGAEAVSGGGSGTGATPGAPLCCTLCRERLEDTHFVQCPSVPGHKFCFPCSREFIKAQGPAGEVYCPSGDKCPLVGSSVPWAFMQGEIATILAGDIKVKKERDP
UniProt O70237: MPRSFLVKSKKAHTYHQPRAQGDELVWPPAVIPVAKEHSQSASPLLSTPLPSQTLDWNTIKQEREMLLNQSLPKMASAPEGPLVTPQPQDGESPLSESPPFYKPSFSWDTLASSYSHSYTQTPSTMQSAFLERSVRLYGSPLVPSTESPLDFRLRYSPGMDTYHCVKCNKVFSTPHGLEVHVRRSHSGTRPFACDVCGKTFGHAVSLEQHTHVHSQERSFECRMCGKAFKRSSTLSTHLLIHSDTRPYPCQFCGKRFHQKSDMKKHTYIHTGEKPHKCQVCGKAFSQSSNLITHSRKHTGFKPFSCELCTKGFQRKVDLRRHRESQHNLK
UniProt P22091: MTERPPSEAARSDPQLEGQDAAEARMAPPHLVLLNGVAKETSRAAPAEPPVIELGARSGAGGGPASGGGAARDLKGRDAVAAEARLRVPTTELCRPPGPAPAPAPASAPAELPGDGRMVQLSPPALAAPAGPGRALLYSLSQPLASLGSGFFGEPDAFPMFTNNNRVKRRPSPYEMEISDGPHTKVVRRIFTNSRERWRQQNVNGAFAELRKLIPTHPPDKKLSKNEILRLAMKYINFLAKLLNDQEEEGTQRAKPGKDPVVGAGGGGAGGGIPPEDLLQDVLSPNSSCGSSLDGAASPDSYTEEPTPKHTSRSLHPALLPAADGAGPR

T1: ETO2-V5-Bio (UniProt O54972)
T1 sequence (chain, Bio peptide of the tag biotinylated by the bacterial BirA enzyme): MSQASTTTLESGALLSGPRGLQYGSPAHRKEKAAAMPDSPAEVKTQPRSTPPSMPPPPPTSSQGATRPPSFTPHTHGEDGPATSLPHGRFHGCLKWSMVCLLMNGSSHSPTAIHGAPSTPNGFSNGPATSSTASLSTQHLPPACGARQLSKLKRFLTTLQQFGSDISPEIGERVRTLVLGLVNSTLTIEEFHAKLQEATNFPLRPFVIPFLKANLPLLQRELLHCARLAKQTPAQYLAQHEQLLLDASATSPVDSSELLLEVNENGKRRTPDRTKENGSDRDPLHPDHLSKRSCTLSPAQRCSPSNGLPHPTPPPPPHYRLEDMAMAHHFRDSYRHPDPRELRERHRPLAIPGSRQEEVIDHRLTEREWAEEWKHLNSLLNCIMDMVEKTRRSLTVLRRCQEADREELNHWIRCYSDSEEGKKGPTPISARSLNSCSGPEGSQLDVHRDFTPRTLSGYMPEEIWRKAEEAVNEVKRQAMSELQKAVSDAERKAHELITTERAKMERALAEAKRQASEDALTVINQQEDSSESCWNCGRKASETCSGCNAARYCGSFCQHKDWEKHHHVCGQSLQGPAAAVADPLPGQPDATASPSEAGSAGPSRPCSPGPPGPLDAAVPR

T2: ETO2 (endogenous) (mouse (endogenous in MEL)) (UniProt O54972)
T2 sequence: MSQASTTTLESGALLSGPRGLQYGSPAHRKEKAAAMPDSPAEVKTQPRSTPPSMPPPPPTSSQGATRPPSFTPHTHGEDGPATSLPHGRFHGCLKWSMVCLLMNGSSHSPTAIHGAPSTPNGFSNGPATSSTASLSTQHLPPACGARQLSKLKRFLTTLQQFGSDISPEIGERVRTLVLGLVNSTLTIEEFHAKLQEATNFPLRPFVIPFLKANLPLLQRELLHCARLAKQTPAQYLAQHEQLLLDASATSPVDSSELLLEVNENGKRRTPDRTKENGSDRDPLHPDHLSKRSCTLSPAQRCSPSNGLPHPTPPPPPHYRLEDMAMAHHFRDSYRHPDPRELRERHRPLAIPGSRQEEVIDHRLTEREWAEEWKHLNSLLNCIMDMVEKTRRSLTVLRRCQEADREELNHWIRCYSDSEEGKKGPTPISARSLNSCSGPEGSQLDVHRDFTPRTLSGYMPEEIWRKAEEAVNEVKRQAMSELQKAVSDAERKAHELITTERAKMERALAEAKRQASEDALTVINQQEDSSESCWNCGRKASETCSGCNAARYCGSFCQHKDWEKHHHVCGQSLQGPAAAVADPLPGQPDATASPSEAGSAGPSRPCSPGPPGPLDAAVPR


Assays:
ETO2-V5-Bio = target: T1, ETO2-V5-Bio; assay: affinity purification with mass spectrometry; single-step streptavidin capture of ETO2-V5-Bio from MEL nuclear extracts, on-bead trypsin digestion, LC-MS/MS; filtered against BirA-only MEL cells; two independent experiments
[1] = target: interferon regulatory factor 2-binding protein 2 (IRF2BP2), endogenous (mouse (endogenous in MEL)) (UniProt E9Q1P8); assay: affinity purification with mass spectrometry; endogenous IRF2BP2 antibody cross-linked to protein G Sepharose, MEL nuclear extracts with benzonase, 3 h at 4 °C, washes in C-100 buffer (100 mM KCl), LC-MS/MS; control IgG
[2] = target: T2, ETO2 (endogenous) (mouse (endogenous in MEL)); assay: affinity purification with mass spectrometry; endogenous ETO2 antibody cross-linked to protein G Sepharose, MEL nuclear extracts with benzonase, 3 h at 4 °C, washes in C-100 buffer (100 mM KCl), LC-MS/MS; control immunoglobulin
[3] = target: interferon regulatory factor 2-binding protein 2 (IRF2BP2), endogenous (mouse (endogenous in MEL)) (UniProt E9Q1P8); assay: affinity purification with mass spectrometry; endogenous IRF2BP2 antibody cross-linked to protein G Sepharose, MEL nuclear extracts with benzonase, 3 h at 4 °C, washes in C-100 buffer (100 mM KCl), LC-MS/MS; control IgG; remark: listed apart in the source
[4] = target: T2, ETO2 (endogenous) (mouse (endogenous in MEL)); assay: affinity purification with mass spectrometry; endogenous ETO2 antibody cross-linked to protein G Sepharose, MEL nuclear extracts with benzonase, 3 h at 4 °C, washes in C-100 buffer (100 mM KCl), LC-MS/MS; control immunoglobulin; remark: listed apart in the source

Row | Molecule | binding (ETO2-V5-Bio) | binding [1] | also measured
1 | single-stranded DNA-binding protein 4 (SSBP4) (mouse (endogenous in MEL)) | binds |  | 
2 | IRF2BPL (from UniProt Q8K3X4 1-775) |  | binds | 
3 | NCOR1 (from UniProt Q60974 1-2453) |  | binds | 
4 | IRF2BP1 (from UniProt Q8R3Y8 1-584) |  | binds | 
5 | growth factor-independent 1B (GFI1B) (from UniProt O70237 1-330) | binds |  | binding [2]: binds
6 | T-cell acute lymphocytic leukaemia protein 1 (TAL1) (from UniProt P22091 1-329) | binds |  | 
7 | cyclin-dependent kinase 11B (protein, UniProt P24788 1-784) MGDEKDSWKVKTLDEILQEKKRRKEQEEKAEIKRLKNSDDRDSKRDSLEEGELRDHRMEITIRNSPYRREDSMEDRGEEDDSLAIKPPQQMSRKEKAHHRKDEKRKEKRRHRSHSAEGGKHARVKEKEREHERRKRHREEQDKARREWERQKRREMAREHSRRERDRLEQLERKRERERKLREQQKEQREQKERERRAEERRKEREARREVSAHHRTMREEYSDKGKVGHWSRSPLRPPRERFEMGDNRKPVKEEKVEERDLLSDLQDISDSERKTSSAESSSAESGSGSEEEEEEEEEEEEEEGSTSEESEEEEEEEEEEEEEETGSNSEEASEQSAEEVSDEEMSEDEDRENENHILVVPESRFDRDSGDSEEGEEEVGEGTPQSSAPTEGDYVPDSPALSPIELKQELPKYLPALQGCRSVEEFQCLNRIEEGTYGVVYRAKDKKTDEIVALKRLKMEKEKEGFPITSLREINTILKAQHPNIVTVREIVVGSNMDKIYIVMNYVEHDLKSLMETMKQPFLPGEVKTLMIQLLSGVKHLHDNWILHRDLKTSNLLLSHAGILKVGDFGLAREYGSPLKAYTPVVVTLWYRAPELLLGAKEYSTAVDMWSVGCIFGELLTQKPLFPGKSDIDQINKIFKDLGTPSEKIWPGYNDLPAVKKMTFSEYPYNNLRKRFGALLSDQGFDLMNKFLTYYPGRRINAEDGLKHEYFRETPLPIDPSMFPTWPAKSEQQRVKRGTSPRPPEGGLGYSQLGDDDLKETGFHLTTTNQGASAAGPGFSLKF |  |  | binding [3]: binds
8 | single-stranded DNA-binding protein 2 (SSBP2) (protein, UniProt Q9CYZ8 1-361) MYGKGKSNSSAVPSDSQAREKLALYVYEYLLHVGAQKSAQTFLSEIRWEKNITLGEPPGFLHSWWCVFWDLYCAAPERRETCEHSSEAKAFHDYSAAAAPSPVLGNMPPGDGMPVGPVPPGFFQPFMSPRYPGGPRPPLRIPNQALGGVPGSQPLLPSGMDPTRQQGHPNMGGPMQRMTPPRGMVPLGPQNYGGAMRPPLNALGGPGMPGMNMGPGGGRPWPNPTNANSIPYSSASPGNYVGPPGGGGPPGTPIMPSPADSTNSGDNMYTLMNAVPPGPNRPNFPMGPGSDGPMGGLGGMESHHMNGSLGSGDMDSISKNSPNNMSLSNQPGTPRDDGEMGGNFLNPFQSESYSPSMTMSV | binds |  | 
9 | single-stranded DNA-binding protein 3 (SSBP3) (protein, UniProt Q9D032 1-388) MFAKGKGSAVPSDGQAREKLALYVYEYLLHVGAQKSAQTFLSEIRWEKNITLGEPPGFLHSWWCVFWDLYCAAPERRDTCEHSSEAKAFHDYSAAAAPSPVLGNIPPNDGMPGGPIPPGFFQGPPGSQPSPHAQPPPHNPSSMMGPHSQPFMSPRYAGGPRPPIRMGNQPPGGVPGTQPLLPNSMDPTRQQGHPNMGGSMQRMNPPRGMGPMGPGPQNYGSGMRPPPNSLGPAMPGINMGPGAGRPWPNPNSANSIPYSSSSPGTYVGPPGGGGPPGTPIMPSPADSTNSSDNIYTMINPVPPGGSRSNFPMGPGSDGPMGGMGGMEPHHMNGSLGSGDIDGLPKNSPNNISGISNPPGTPRDDGELGGNFLHSFQNDNYSPSMTMSV | binds |  | 
10 | SIN3 transcription regulator family member A (Sin3A) (protein, UniProt Q60520 1-1274) MKRRLDDQESPVYAAQQRRIPGSTEAFSHQHRVLAPAPPVYEAVSETMQSATGIQYSVAPNYQVSAVPQSSGSHGPAIAAVHSSHHHPTAVQPHGGQVVQSHAHPAPPVAPVQGQQQFQRLKVEDALSYLDQVKLQFGSQPQVYNDFLDIMKEFKSQSIDTPGVISRVSQLFKGHPDLIMGFNTFLPPGYKIEVQTNDMVNVTTPGQVHQIPTHGIQPQPQPPPQHPSQPSSQSAPTPAQPAPQPTAAKVSKPSQLQAHTPASQQTPPLPPYASPRSPPVQPHTPVTISLGTAPSLQNNQPVEFNHAINYVNKIKNRFQGQPDIYKAFLEILHTYQKEQRNAKEAGGNYTPALTEQEVYAQVARLFKNQEDLLSEFGQFLPDANSSVLLSKTTAEKVDSVRNDHGGTVKKPQLNNKPQRPSQNGCQIRRHSGTGATPPVKKKPKLMSLKESSMADASKHGVGTESLFFDKVRKALRSAEAYENFLRCLVIFNQEVISRAELVQLVSPFLGKFPELFNWFKNFLGYKESVHLESFPKERATEGIAMEIDYASCKRLGSSYRALPKSYQQPKCTGRTPLCKEVLNDTWVSFPSWSEDSTFVSSKKTQYEEHIYRCEDERFELDVVLETNLATIRVLEAIQKKLSRLSAEEQAKFRLDNTLGGTSEVIHRKALQRIYADKAADIIDGLRKNPSIAVPIVLKRLKMKEEEWREAQRGFNKVWREQNEKYYLKSLDHQGINFKQNDTKVLRSKSLLNEIESIYDERQEQATEENAGVPVGPHLSLAYEDKQILEDAAALIIHHVKRQTGIQKEDKYKIKQIMHHFIPDLLFAQRGDLSDVEEEEEEEMDVDEATGAPKKHNGVGGSPPKSKLLFSNTAAQKLRGMDEVYNLFYVNNNWYIFMRLHQILCLRLLRICSQAERQIEEENREREWEREVLGIKRDKSDSPAIQLRLKEPMDVDVEDYYPAFLDMVRSLLDGNIDSSQYEDSLREMFTIHAYIAFTMDKLIQSIVRQLQHIVSDEVCVQVTDLYLAENNNGATGGQLNSQTSRSLLESAYQRKAEQLMSDENCFKLMFIQSQGQVQLTVELLDTEEENSDDPVEAERWSDYVERYMSSDTTSPELREHLAQKPVFLPRNLRRIRKCQRGREQQEKEGKEGNSKKTMENVESLDKLECRFKLNSYKMVYVIKSEDYMYRRTALLRAHQSHERVSKRLHQRFQAWVDKWTKEHVPREMAAETSKWLMGEGLEGLVPCTTTCDTETLHFVSINKYRVKYGTVFKAP |  |  | binding [4]: no binding
